# Measurements reported in patent US20160120877A1, “PHARMACEUTICAL COMPOSITIONS FOR SUSTAINED DELIVERY OF BENZODIAZEPINE ANTAGONISTS” (priority 2010, published 2016).
# Further values from the same series stand in other lists.
# Assay: Dialysis diffusion: effect of sample concentration
# Format: physicochemical
# Protocol: Dialysis tubing cellulose membrane was cut into approximately 8 cm lengths, washed with hot water for 3 hours. Tubing was then treated with 0.3% (w/v) solution of sodium sulfide at 80° C. for 1 minute, washed with hot water (60° C.) for 2 minutes and followed by acidification with 0.2% sulfuric acid. Tubing was then rinsed with hot water to remove the acid. Test formulations were added, the tubing closed with nylon closures and placed in the dialysate. At various time periods, the dialysate was sampled and the flumazenil released measured by HPLC assay.
# Experiments were conducted to test the effect of sample concentration on diffusion rate.
# As described in 1.1 with 600 ml of phosphate buffer pH 4.0 as dialysate.
# A=0.25 g of a 1.5% flumazenil solution in NMP
# B=0.25 g of a 3.0% flumazenil solution in NMP
# C=0.25 g of a 4.5% flumazenil solution in NMP
smiles,measurement,setting,value
"CCOC(=O)c1ncn2c1CN(C)C(=O)c1cc(F)ccc1-2 [flumazenil, ethyl 8-fluoro-5,6-dihydro-5-methyl-6-oxo-4H-imidazo[1,5-a](1,4)benzodiazepine-3-carboxylate]",% flumazenil released,"sample A1 (0.25 g of 1.5% solution in NMP), 4 h",101.2%
same,% flumazenil released,"sample A1 (0.25 g of 1.5% solution in NMP), 5 h",101.4%
same,% flumazenil released,"sample A1 (0.25 g of 1.5% solution in NMP), 6 h",101.3%
same,% flumazenil released,"sample A1 (0.25 g of 1.5% solution in NMP), 24 h",100.1%
same,% flumazenil released,"sample A2 (0.25 g of 1.5% solution in NMP), 4 h",101.3%
same,% flumazenil released,"sample A2 (0.25 g of 1.5% solution in NMP), 5 h",101.0%
same,% flumazenil released,"sample A2 (0.25 g of 1.5% solution in NMP), 6 h",101.2%
same,% flumazenil released,"sample A2 (0.25 g of 1.5% solution in NMP), 24 h",100.0%
same,% flumazenil released,"sample B1 (0.25 g of 3.0% solution in NMP), 3 h",83.4%
same,% flumazenil released,"sample B1 (0.25 g of 3.0% solution in NMP), 4 h",89.9%
same,% flumazenil released,"sample B1 (0.25 g of 3.0% solution in NMP), 5 h",94.6%
same,% flumazenil released,"sample B1 (0.25 g of 3.0% solution in NMP), 6 h",97.9%
same,% flumazenil released,"sample B1 (0.25 g of 3.0% solution in NMP), 24 h",99.6%
same,% flumazenil released,"sample B2 (0.25 g of 3.0% solution in NMP), 3 h",86.9%
same,% flumazenil released,"sample B2 (0.25 g of 3.0% solution in NMP), 4 h",92.9%
same,% flumazenil released,"sample B2 (0.25 g of 3.0% solution in NMP), 5 h",96.6%
same,% flumazenil released,"sample B2 (0.25 g of 3.0% solution in NMP), 6 h",99.1%
same,% flumazenil released,"sample B2 (0.25 g of 3.0% solution in NMP), 24 h",99.2%
same,% flumazenil released,"sample C1 (0.25 g of 4.5% solution in NMP), 3 h",52.3%
same,% flumazenil released,"sample C1 (0.25 g of 4.5% solution in NMP), 4 h",63.4%
same,% flumazenil released,"sample C1 (0.25 g of 4.5% solution in NMP), 5 h",72.5%
same,% flumazenil released,"sample C1 (0.25 g of 4.5% solution in NMP), 6 h",80.7%
same,% flumazenil released,"sample C1 (0.25 g of 4.5% solution in NMP), 24 h",100.4%
same,% flumazenil released,"sample C2 (0.25 g of 4.5% solution in NMP), 3 h",54.9%
same,% flumazenil released,"sample C2 (0.25 g of 4.5% solution in NMP), 4 h",64.3%
same,% flumazenil released,"sample C2 (0.25 g of 4.5% solution in NMP), 5 h",71.7%
same,% flumazenil released,"sample C2 (0.25 g of 4.5% solution in NMP), 6 h",78.5%
same,% flumazenil released,"sample C2 (0.25 g of 4.5% solution in NMP), 24 h",100.3%
